Test results from patent US20240252517A1, “MINERALOCORTICOID RECEPTOR ANTAGONISTS FOR THE PREVENTION AND/OR TREATMENT OF A CORONAVIRUS INFECTION” (Imaginatives Group Limited, priority 2021, published 2024).
At least one structure is not confirmed: it was looked up by name or label, or the drawing left a doubt.

Tested on: SARS-CoV-2
Settings: result in words

## C[C@@H]1C[C@H]2[C@@H]3CCC4=CC(=O)C=C[C@]4(C)[C@@]3(F)[C@@H](O)C[C@]2(C)[C@@]1(O)C(=O)CO [HIDEX, dexamethasone]
After 5 d
  Systolic blood pressure compared to baseline: significantly higher
  D-dimer levels compared to baseline: significant reduction
